Measurements: PubChem BioAssay AID493014 (National Center for Advancing Translational Sciences (NCATS), 2011)
Screen size: about 340,000 compounds; about 170 (0.05%) were called active. The inconclusive results got no clear call from the source; some entries with a clear call stand among them for comparison. Calls follow the shape of the dose curve; as a rule, active = well fitted inhibition curve with a large enough effect in the signal ratio, with a control signal flat (not every such curve was filed as active); inconclusive = small, poorly fitted or top-dose-only effect, or effect the other way, or a change in a side signal; inactive = flat fitted curve, though single readings scatter; the % refers to the signal ratio. Potencies of inconclusive entries are doubtful fits and often do not repeat.
Potency is read from the fitted curve at half-maximal effect.

Test: qHTS Assay to Find Inhibitors of Chronic Active B-Cell Receptor Signaling;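 as to activity change, negative = inhibition: plate controls were basal doxycycline-induced cells for no effect and cells given 10 µM MG132 for full effect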
Conditions: ABC-DLBCL IkBa-CBG/CBR reporter, luminescence ratio (green luciferase fused to IkBa over red control in TMD8 lymphoma cells), 4 h; activity change, negative = inhibition: at 46.1 µM (top of the series)
Procedure, shortened: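 TMD8 ABC-DLBCL cells carrying doxycycline-inducible green luciferase fused to IkappaBalpha plus unfused red luciferase were exposed to compounds (up to 46 uM) for 4 hrs at 37C. Activity came from the overlap-corrected green/red luminescence ratio.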
In the case of COc1ccc(CN2CCN(c3ccccc3F)CC2)cc1O, the activity change, negative = inhibition is reported as “inactive”. With C=CCn1c(O)c(C(CC)=NC(C)c2ccccc2)c(=O)[nH]c1=O (centres undefined) the Potency was inconclusive: 35.5 µM [falling, single point]. In the case of CCCCn1c(O)c(C(CC)=NCc2ccc3c(c2)OCO3)c(=O)[nH]c1=O, the activity change, negative = inhibition is reported as inconclusive: 19.2%. With CCOC(=O)c1c(/N=C/c2c(O)n(-c3ccccc3F)c(=S)[nH]c2=O)sc2c1CCCC2 the activity change, negative = inhibition was “inactive”. In the case of CCCC[N+]12CCC(CC1)C(C(O)(c1ccccc1)c1ccccc1)C2 (centres undefined), the activity change, negative = inhibition is reported as inconclusive: -13.5%. In the case of Oc1cc2c(cc1O)[C@H]1c3ccccc3CN[C@@H]1CC2, the Potency is reported as inconclusive: 20 µM [falling, partial curve]. With CN1C(=O)C(O)N=C(c2ccccc2)c2ccccc21 (centres undefined) the activity change, negative = inhibition was inconclusive: 0.874%. In the case of OC(c1cccc(Cl)c1)(c1cccc(Cl)c1)C1CN2CCC1CC2 (centres undefined), the Potency is reported as inconclusive: 3.55 µM [falling, full curve, poor fit]. In the case of C/C(=N\N1CCCCC1c1cccnc1)c1c(O)n(C2CCCCC2)c(=S)[nH]c1=O (centres undefined), the Potency is reported as inconclusive: 20.6 µM [falling, partial curve, poor fit]. With COC(=O)C1=C(c2ccc(-c3ccccc3)c(F)c2)C[C@@H]2CC[C@H]1N2C(=O)N1CCCC1 the activity change, negative = inhibition was inconclusive: -1.95%. With Cc1ccc2c(c1)oc(=O)n2CC(=O)c1ccccc1 the activity change, negative = inhibition was inconclusive: 6.53%. In the case of C=CCn1c(=O)c(C=Nc2c(OC)cccc2[N+](=O)[O-])c(O)n(CCCC)c1=O, the activity change, negative = inhibition is reported as “inactive”. With CC12CN3CCN(C1)CC(C)(C3)C2=NN the activity change, negative = inhibition was “inactive”. In the case of COc1cc(/C=C(/C)[N+](=O)[O-])ccc1OCc1ccccc1Cl, the Potency is reported as inconclusive: 29.1 µM [rising, single point]. In the case of COc1cc(CN=C(C)c2c(O)n(C3CCCCC3)c(=O)[nH]c2=O)cc(OC)c1, the activity change, negative = inhibition is reported as inconclusive: 2.23%. In the case of Cc1ncc([N+](=O)[O-])n1CCOC(N)=O, the activity change, negative = inhibition is reported as inconclusive: 5.2%. With Cc1ccc(-c2nn(Cc3ccccc3)cc2C(=O)O)cc1 the activity change, negative = inhibition was inconclusive: 2.44%. For O=C(Cn1ncc2c3ccccc3n(Cc3cccc(Cl)c3)c2c1=O)N1CCC2(CC1)OCCO2, the activity change, negative = inhibition was inconclusive: 0.937%. In the case of CNC(=O)O/N=C(\N)Cc1csc2ccccc12, the activity change, negative = inhibition is reported as inconclusive: -1.46%. With O=C(O)c1ccccc1Sc1c([N+](=O)[O-])cc(C(F)(F)F)cc1[N+](=O)[O-] the Potency was inconclusive: 22.4 µM [falling, single point]. In the case of Cc1ccccc1CN1CCCN(Cc2ccc(Cl)cc2)S1(=O)=O, the activity change, negative = inhibition is reported as inconclusive: 0.998%. For COc1ccc(C(=O)C2CCCN(Cc3ccon3)C2)c(OC)c1 (centres undefined), the activity change, negative = inhibition was inconclusive: 11.1%. For O=C(N/N=C/c1cccs1)c1n[nH]c2c1CCCC2, the Potency was inconclusive: 5.62 µM [rising, single point]. For Cc1cc(Oc2cc(NN3CCCCC3)c([N+](=O)[O-])cc2[N+](=O)[O-])ccc1[N+](=O)[O-], the activity change, negative = inhibition was “inactive”. For CCOC(=O)C(=CNc1ccc(C(O)(C(=O)OCC)C(F)(F)F)cc1C)C(=O)OCC (centres undefined), the activity change, negative = inhibition was inconclusive: -15.5%. For O=C(CCCCCn1c(=S)[nH]c2ccccc2c1=O)N1CCC2(CC1)OCCO2, the activity change, negative = inhibition was inconclusive: -5.43%. For Cn1c(O)c(C=Nc2cccc(C(F)(F)F)c2)c(=O)n(C)c1=O, the activity change, negative = inhibition was inconclusive: 1.16%. For Cc1[nH]c2ccc(OCc3ccccc3)cc2c1CCN, the Potency was inconclusive: 14.1 µM [falling, single point]. For Cc1ccc2oc(=O)n(CCC(=O)Nc3ccc(N4CCOCC4)cc3)c2c1, the activity change, negative = inhibition was inconclusive: -2.12%. In the case of COC1=CC2C3Cc4ccc(OC)c(O)c4C2(CCN3C)CC1=O (centres undefined), the activity change, negative = inhibition is reported as inconclusive: 0.546%. For Cc1c2cnn(CC(=O)N3CCC4(CC3)OCCO4)c(=O)c2c(C)n1Cc1ccccc1, the activity change, negative = inhibition was “inactive”. With COc1ccc(CCn2c(O)c(C=Nc3ccccc3F)c(=O)[nH]c2=O)cc1OC the Potency was inconclusive: 3.98 µM [falling, partial curve, poor fit]. For N#Cc1cccc(NC(=O)c2sc3nc4c(cc3c2N)N2CCC4CC2)c1, the Potency was inconclusive: 1.26 µM [rising, full curve]. In the case of CC12CC[C@H]3[C@@H](CCC4(O)C[C@H](O)CCC34/C=N/NC(=O)Cc3ccccc3)C1(O)CCC2C1=CC(=O)OC1 (some centres undefined), the activity change, negative = inhibition is reported as “inactive”. In the case of COc1cccc(C(C)NC(=O)Nc2cccc(C(F)(F)F)c2)c1 (centres undefined), the activity change, negative = inhibition is reported as inconclusive: 0.474%. For O=C(COc1ccccc1)Nc1cccc2nsnc12, the activity change, negative = inhibition was inconclusive: -15.7%. For O=C1CC(N2CC=C(c3ccccc3)CC2)C(=O)N1c1ccc(F)cc1 (centres undefined), the Potency was inconclusive: 23.1 µM [falling, partial curve]. For O=c1[nH]c(O)c(N=Nc2cc([N+](=O)[O-])ccc2O)c(=O)[nH]1, the activity change, negative = inhibition was “inactive”. In the case of Oc1ccccc1/C=N/NP(=S)(c1ccccc1)c1ccccc1, the activity change, negative = inhibition is reported as inconclusive: 0.0874%. With COc1ccc2nc(/N=C/c3c(O)n(-c4cccc(Cl)c4)c(=O)[nH]c3=O)sc2c1 the Potency was inconclusive: 12.6 µM [falling, single point]. With CCOc1ccc(-c2cc(C)[n+](CCN3CCOCC3)c(-c3ccc(OCC)cc3)c2)cc1 the Potency was inconclusive: 11.2 µM [falling, single point]. For CCNC(=O)NNC(=O)C1CC(c2cccnc2)=NO1 (centres undefined), the activity change, negative = inhibition was inconclusive: 11.4%. With CN(C)C(=O)Oc1cc(=O)n2c3c(cccc13)CCC2 the activity change, negative = inhibition was inconclusive: 4.58%. With O=C(c1ccc(Cl)cc1)C1CCCN(Cc2ccc3ncccc3c2)C1 (centres undefined) the activity change, negative = inhibition was “inactive”. For COc1cc2c(cc1O)[C@@H]1Cc3ccc(OC)c(O)c3CN1CC2, the Potency was inconclusive: 20.6 µM [falling, single point]. In the case of CCc1cc2c(N3CCN(C)CC3)ncnc2s1, the activity change, negative = inhibition is reported as inconclusive: 0.26%. With C=Cn1ccnc1P(=S)(c1ccc(N(C)C)cc1)c1nccn1C=C the activity change, negative = inhibition was inconclusive: -9.76%. For Clc1ccc2c(c1)C(OC1CN3CCC1CC3)c1ccccc1CS2 (centres undefined), the activity change, negative = inhibition was inconclusive: -1.01%. In the case of CN1C(=O)C(Cc2nc3ccccc3c(=O)n2-c2ccccc2)c2ccccc21 (centres undefined), the Potency is reported as inconclusive: 6.31 µM [falling, partial curve, poor fit].
